Data from paper doi:10.1101/2020.04.27.064162.

Sequences of proteins named here, by UniProt entry; tags and fusion partners are left off.
UniProt Q9NRN9, whole entry: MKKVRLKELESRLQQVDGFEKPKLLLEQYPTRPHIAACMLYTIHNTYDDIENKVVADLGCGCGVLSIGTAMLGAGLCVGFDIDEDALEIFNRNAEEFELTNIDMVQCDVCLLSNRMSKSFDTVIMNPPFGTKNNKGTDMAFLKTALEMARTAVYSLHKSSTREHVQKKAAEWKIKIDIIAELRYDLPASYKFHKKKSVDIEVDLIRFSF

Target: FLAG and HA-tagged METTL5 (METTL5-FLAG-HA) (UniProt Q9NRN9)
Experiment: affinity purification with mass spectrometry

binding: binds
B1: TRMT112 (endogenous) (protein, UniProt Q9UI30 1-125)
chain: MKLLTHNLLSSHVRGVGSRGFPLRLQATEVRICPVEFNPNFVARMIPKVEWSAFLEAADNLRLIQVPKGPVEGYEENEEFLRTMHHLLLEVEVIEGTLQCPESGRMFPISRGIPNMLLSEEETES

No constants are given. Whether binding was seen depends on the method and setting. Binding seen in cells or lysates may run through a third protein. Here binding means that the protein was enriched with, or labelled near, the bait; the list need not be complete.
